Results reported in patent publication US20070197457A1.
No constants are given. Whether binding was seen depends on the method and setting. Binding seen in cells or lysates may run through a third protein. Binding can be weak; no strength is given.

Experiments:
Experiment in all cases: co-immunoprecipitation from transfected HEK293T cells, Western blot
SMAD4 (Co-SMAD) = molecular target: SMAD4 (Co-SMAD)
[1] = molecular target: SMAD1 (wild-type, full-length R-SMAD)
SMAD2 (wild-type R-SMAD) = molecular target: SMAD2 (wild-type R-SMAD)
SMAD6 (I-SMAD) = molecular target: SMAD6 (I-SMAD)
SMAD5 (wild-type R-SMAD) = molecular target: SMAD5 (wild-type R-SMAD)
[2] = molecular target: SMAD7 (I-SMAD), full-length

Measured: binding

B1: wild-type TAK1 (TAK1wt), full-length murine TGF-beta activated kinase 1, long splice form (enzyme, mouse, UniProt Q62073 1-579, looked up, not shown: small tags and cut ends)
chain: MSTASAASSSSSSSASEMIEAPSQVLNFEEIDYKEIEVEEVVGRGAFGVVCKAKWRAKDVAIKQIESESERKAFIVELRQLSRVNHPNIVKLYGACLNPVCLVMEYAEGGSLYNVLHGAEPLPYYTAAHAMSWCLQCSQGVAYLHSMQPKALIHRDLKPPNLLLVAGGTVLKICDFGTACDIQTHMTNNKGSAAWMAPEVFEGSNYSEKCDVFSWGIILWEVITRRKPFDEIGGPAFRIMWAVHNGTRPPLIKNLPKPIESLMTRCWSKDPSQRPSMEEIVKIMTHLMRYFPGADEPLQYPCQYSDEGQSNSATSTGSFMDIASTNTSNKSDTNMEQVPATNDTIKRLESKLLKNQAKQQSESGRLSLGASRGSSVESLPPTSEGKRMSADMSEIEARIVATAAYSKPKRGHRKTASFGNILDVPEIVISGNGQPRRRSIQDLTVTGTEPGQVSSRSSSPSVRMITTSGPTSEKPARSHPWTPDDSTDTNGSDNSIPMAYLTLDHQLQPLAPCPNSKESMAVFEQHCKMAQEYMKVQTEIALLLQRKQELVAELDQDEKDQQNTSRLVQEHKKLLDENKSLSTYYQQCKKQLEVIRSQQQKRQGTS
binds: SMAD4 (Co-SMAD) | [1] | SMAD2 (wild-type R-SMAD) | SMAD6 (I-SMAD) | SMAD5 (wild-type R-SMAD) | [2]
